The text below walks through data of PMC5996148.

Where “and” joins values, the source holds several entries; their conditions need not be identical. Identical values can stand only once. This is one part of the list.

What all share (assay): protein microarray (ProtoArray v5.0), streptavidin-Alexa Fluor 647
Common to all, as to details: 3'-biotin; 20 mM Tris (pH 7.5), 5 mM MgCl2, 100 mM KCl, 0.1% Tween-20, A/T-rich and random oligonucleotide blockers; temperature not stated; high values mean tight binding

Experiment [1] deals with FLJ12684 (human).
In experiment [2] the test system is FLJ14107 (human).
Experiment [3] deals with FLJ20160 (human).
For experiment [4], the system named is FLJ20489 (human).
Experiment [5] deals with FLJ22222 (human).
For experiment [6], the system named is FLJ22447 (human).
Experiment [7] concerns FLJ23356 (human).
Experiment [8] relates to FLJ25758 (human).
Experiment [9] relates to FLJ30934 (human).
Experiment [10] relates to FLJ31438 (human).

Consider “GGGAGGCTGAGGCAGG [G4-1 biotinylated (PQS2)]”, for which the binding signal in experiment [1] is -0.253 z-score; in experiment [2] it was -0.293 z-score; in experiment [3], -0.254 z-score; in experiment [4], -0.309 z-score; in experiment [5], -0.311 z-score; in experiment [6] it was -0.307 z-score. In addition, the binding signal in [7] is -0.286 z-score; in [8], -0.346 z-score; in experiment [9], -0.28 z-score and -0.296 z-score; in experiment [10] it was -0.294 z-score.
